From patent publication US9090671B2, “Macrocyclic peptides” (Scynexis, Inc., priority 2008, dated 2015)
Some entries share one result that the patent states for a list of compounds.

Chains of the proteins cited; added tags and fusions are not shown. Residues count along the entry.
UniProt P23284, 34-216: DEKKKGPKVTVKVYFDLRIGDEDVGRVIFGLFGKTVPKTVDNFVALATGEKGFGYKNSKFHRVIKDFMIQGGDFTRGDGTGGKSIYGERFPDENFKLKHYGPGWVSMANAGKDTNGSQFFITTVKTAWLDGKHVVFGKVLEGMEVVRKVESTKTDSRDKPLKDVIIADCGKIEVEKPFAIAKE
UniProt P30405, 30-207: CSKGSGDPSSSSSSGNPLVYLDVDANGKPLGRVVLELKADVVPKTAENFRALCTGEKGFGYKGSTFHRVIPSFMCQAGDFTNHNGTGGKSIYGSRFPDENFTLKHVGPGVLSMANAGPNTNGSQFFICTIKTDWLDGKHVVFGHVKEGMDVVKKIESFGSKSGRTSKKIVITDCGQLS

Legend:
cyclophilin B = cyclophilin B (Homo sapiens, UniProt P23284); assay: Cyclophilin binding competitive ELISA (cyclophilin B); conditions: human recombinant cyclophilin, read-out: EC50, concentration required to achieve 50% inhibition, against cyclophilin B
Experimental: (§1) The cyclophilin inhibition binding of compounds disclosed herein is determined using a competitive ELISA adapted from the methods described by Quesniaux et al. (Eur. J. Immunol., 1987, 17:1359-1365). Activated ester of succinyl spacers bound to D-Lys^8-cyclosporine A (D-Lys^8-Cs) are coupled to bovine serum albumin (BSA) through D-lysyl residue in position 8. BSA is dissolved in 0.1 M borate buffer, pH 9.0 (4 mg in 1.4 ml). A hundredfold molar excess of D-Lys^8-Cs dissolved in dimethyl formamide (0.6 ml) is added drop wise to the BSA under vigorous stirring.
(§2) Microtiter Plates are coated with D-Lys^8-Cs-BSA conjugate (2 μg/ml in PBS for 24 hours at 4° C.). Plates are washed with Tween®/PBS and with PBS alone. To block nonspecific binding, 2% BSA/PBS (pH 7.4) is added to the wells and allowed to incubate for 2 hours at 37° C. […] Cyclophilin is detected with anti-cyclophilin rabbit antiserum diluted in 1% BSA containing PBS and incubates overnight at 4° C. […] Bound rabbit antibodies are then detected by goat anti-rabbit IgG conjugated to alkaline phosphatase diluted in 1% BSA-PBS and allowed to incubate for 2 hours at 37° C. […] After incubation with 4-nitrophenyl phosphate (1 g/l in diethanolamine buffer, pH 9.8) for 1 to 2 hours at 37° C., the enzymatic reaction is measured spectrophotometrically at 405 nm using a spectrophotometer. […]

cyclophilin D = cyclophilin D (Homo sapiens, UniProt P30405); assay: Cyclophilin binding competitive ELISA (cyclophilin D); conditions: human recombinant cyclophilin, read-out: EC50, concentration required to achieve 50% inhibition, against cyclophilin D
Experimental: as §1, §2

Substance | EC50 (cyclophilin B) [nM] | EC50 (cyclophilin D) [nM]
[Methylthio-Sar]^3-(N-allyl)-Val^5-cyclosporine A [Compound 20] | < 600 | > 600
[Ethylthio-Sar]^3-(N-benzyl)-Val^5-cyclosporine A [Compound 21] | < 600 | < 600
